# The other results are listed elsewhere or left out.
# Protein sequences, listed by entry. Tags and fused reporters are not part of them. Lines headed by an entry give the natural chain unless they say otherwise; changes in a name come on top.
# UniProt Q7L4I2: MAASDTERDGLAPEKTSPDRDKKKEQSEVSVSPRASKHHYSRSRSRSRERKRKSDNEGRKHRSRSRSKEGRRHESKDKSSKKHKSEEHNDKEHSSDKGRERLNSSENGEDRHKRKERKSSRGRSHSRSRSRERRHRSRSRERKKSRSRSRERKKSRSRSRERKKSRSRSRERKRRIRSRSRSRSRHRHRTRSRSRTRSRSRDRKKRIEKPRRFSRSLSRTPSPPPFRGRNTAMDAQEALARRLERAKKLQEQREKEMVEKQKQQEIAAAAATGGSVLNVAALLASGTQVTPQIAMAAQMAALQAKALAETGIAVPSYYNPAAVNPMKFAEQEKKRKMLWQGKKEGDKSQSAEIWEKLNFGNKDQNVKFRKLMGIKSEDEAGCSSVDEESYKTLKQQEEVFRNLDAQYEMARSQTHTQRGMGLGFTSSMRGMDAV
# UniProt Q86SQ7: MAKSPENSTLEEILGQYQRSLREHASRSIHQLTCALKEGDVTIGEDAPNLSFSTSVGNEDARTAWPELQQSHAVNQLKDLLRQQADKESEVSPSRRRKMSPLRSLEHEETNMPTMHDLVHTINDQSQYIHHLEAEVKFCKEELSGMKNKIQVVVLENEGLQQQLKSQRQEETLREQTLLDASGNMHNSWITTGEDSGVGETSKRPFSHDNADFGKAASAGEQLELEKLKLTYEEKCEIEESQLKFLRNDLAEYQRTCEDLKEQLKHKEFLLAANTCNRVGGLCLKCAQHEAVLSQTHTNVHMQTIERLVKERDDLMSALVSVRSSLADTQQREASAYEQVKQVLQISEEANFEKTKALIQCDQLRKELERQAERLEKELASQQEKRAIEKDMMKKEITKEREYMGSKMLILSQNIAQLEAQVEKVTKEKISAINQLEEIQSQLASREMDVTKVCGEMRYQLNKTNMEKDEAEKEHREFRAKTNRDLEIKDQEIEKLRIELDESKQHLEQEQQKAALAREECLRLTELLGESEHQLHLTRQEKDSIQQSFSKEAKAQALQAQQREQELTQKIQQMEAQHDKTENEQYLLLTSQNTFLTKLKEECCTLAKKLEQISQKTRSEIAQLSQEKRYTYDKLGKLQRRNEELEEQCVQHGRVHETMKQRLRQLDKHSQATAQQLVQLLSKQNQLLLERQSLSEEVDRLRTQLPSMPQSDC
# UniProt P23297: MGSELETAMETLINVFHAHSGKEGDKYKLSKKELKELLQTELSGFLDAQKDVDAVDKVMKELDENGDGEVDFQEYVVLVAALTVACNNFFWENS
# UniProt Q9Y3A4: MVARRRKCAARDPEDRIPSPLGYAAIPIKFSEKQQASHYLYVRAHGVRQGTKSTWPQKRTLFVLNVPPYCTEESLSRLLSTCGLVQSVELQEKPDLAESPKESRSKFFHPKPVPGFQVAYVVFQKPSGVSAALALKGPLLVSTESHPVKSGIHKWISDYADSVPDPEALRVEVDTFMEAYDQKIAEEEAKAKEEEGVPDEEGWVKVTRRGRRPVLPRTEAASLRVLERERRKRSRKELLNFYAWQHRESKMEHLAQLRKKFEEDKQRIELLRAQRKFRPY
# UniProt P57060: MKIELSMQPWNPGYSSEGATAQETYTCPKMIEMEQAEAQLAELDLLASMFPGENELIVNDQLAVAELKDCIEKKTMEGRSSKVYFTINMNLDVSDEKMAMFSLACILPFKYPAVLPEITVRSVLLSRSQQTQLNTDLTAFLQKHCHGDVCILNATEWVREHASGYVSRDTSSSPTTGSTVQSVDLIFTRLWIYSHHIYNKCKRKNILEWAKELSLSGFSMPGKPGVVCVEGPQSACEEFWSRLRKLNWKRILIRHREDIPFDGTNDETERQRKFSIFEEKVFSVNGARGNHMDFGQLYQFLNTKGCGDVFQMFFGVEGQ
# UniProt Q92503: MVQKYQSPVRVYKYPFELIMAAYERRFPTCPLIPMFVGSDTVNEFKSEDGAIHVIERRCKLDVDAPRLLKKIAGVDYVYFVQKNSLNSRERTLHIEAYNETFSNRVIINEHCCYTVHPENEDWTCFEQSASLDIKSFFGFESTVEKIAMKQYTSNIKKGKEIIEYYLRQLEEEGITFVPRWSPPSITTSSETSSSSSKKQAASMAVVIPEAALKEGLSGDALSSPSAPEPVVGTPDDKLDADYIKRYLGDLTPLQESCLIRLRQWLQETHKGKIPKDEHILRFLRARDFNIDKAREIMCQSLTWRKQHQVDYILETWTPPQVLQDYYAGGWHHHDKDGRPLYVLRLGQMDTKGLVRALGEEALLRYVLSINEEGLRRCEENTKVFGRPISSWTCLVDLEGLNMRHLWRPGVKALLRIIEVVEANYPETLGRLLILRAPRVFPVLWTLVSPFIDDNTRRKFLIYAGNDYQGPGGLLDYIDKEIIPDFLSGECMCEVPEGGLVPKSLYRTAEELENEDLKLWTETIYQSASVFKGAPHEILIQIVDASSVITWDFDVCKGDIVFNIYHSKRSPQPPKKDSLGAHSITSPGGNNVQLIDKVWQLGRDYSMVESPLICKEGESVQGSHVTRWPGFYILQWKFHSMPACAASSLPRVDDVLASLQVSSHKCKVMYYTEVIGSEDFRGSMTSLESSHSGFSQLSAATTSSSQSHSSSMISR
# UniProt Q96IZ7: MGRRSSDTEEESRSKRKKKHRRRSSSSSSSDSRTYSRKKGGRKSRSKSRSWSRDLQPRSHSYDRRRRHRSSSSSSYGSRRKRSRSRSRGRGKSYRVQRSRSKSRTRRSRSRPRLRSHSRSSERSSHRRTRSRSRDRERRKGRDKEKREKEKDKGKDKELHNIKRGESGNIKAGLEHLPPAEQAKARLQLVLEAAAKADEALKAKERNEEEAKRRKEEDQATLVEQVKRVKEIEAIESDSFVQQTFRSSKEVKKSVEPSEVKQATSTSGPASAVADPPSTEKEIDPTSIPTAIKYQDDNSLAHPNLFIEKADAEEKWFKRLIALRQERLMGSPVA
# Experiments:
# Assay in all cases: log2 fold change, soluble protein after heating vs DMSO (PISA); higher = thermal stabilisation; K562 cells, 10 uM, 30 min; active = over 0.2 and 3.5 SD of the protein, either way, in both replicates (recomputed)
# [1] = compound: CS(=O)(=O)c1ccc(-c2cnc(N)c(C(=O)Nc3ccccc3)n2)cc1
# Summary of the method: (§1)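 K562 cells at 2×10^6 cells/mL were exposed to 10 μM compound for 30 min, then aliquots were heated for 3 min across 48°C-58°C, pooled, and extracted in PBS containing 0.5% NP-40 at 4°C. The supernatant after 21,000xg for 90 min was taken as soluble protein and measured by TMTpro 16plex LC-MS/MS with channel sums equalised. Thermal stability is reported relative to control samples, with values from duplicates. Fold changes are given on a log2 scale.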
# crizotinib = compound: C[C@@H](Oc1cc(-c2cnn(C3CCNCC3)c2)cnc1N)c1c(Cl)ccc(F)c1Cl [crizotinib]
# Summary of the method: as §1
# [2] = compound: C[C@@H]1COCCN1C2=NC(=NC(=C2)C3(CC3)S(=O)(=O)C)C4=C5C=CNC5=CC=C4
# Summary of the method: as §1
# [3] = compound: C[C@H](C1=CC=C(C=C1)C(=O)NC2=C3C=CNC3=NC=C2)N
# Summary of the method: as §1
# gandotinib = compound: Cc1cc(Nc2cc(CN3CCOCC3)c3nc(C)c(Cc4ccc(Cl)cc4F)n3n2)n[nH]1 [gandotinib]
# Summary of the method: as §1
# [4] = compound: Cc1cc(SCc2sc(-c3ccc(C(F)(F)F)cc3)nc2C)ccc1OCC(=O)O
# Summary of the method: as §1
# doramapimod = compound: Cc1ccc(-n2nc(C(C)(C)C)cc2NC(=O)Nc2ccc(OCCN3CCOCC3)c3ccccc23)cc1 [doramapimod]
# Summary of the method: as §1
# ispinesib = compound: Cc1ccc(C(=O)N(CCCN)[C@@H](c2nc3cc(Cl)ccc3c(=O)n2Cc2ccccc2)C(C)C)cc1 [ispinesib]
# Summary of the method: as §1
# duvelisib = compound: C[C@H](Nc1ncnc2nc[nH]c12)c1cc2cccc(Cl)c2c(=O)n1-c1ccccc1 [duvelisib]
# Summary of the method: as §1
# tozasertib = compound: Cc1cc(Nc2cc(N3CCN(C)CC3)nc(Sc3ccc(NC(=O)C4CC4)cc3)n2)n[nH]1 [tozasertib]
# Summary of the method: as §1
Target,log2 fold change [1],log2 fold change (crizotinib),log2 fold change [2],log2 fold change [3],log2 fold change (gandotinib),log2 fold change [4],log2 fold change (doramapimod),log2 fold change (ispinesib),log2 fold change (duvelisib),log2 fold change (tozasertib)
RSRC2 (UniProt Q7L4I2),inactive: 0.02,inactive: 0.022,inactive: -0.018,inactive: -0.095,inactive: 0.052,inactive: -0.039,inactive: -0.022,inactive: 0.087,,
SDCCAG8 (UniProt Q86SQ7),inactive: -0.15,inactive: 0.073,,,inactive: 0.114,inactive: 0.035,inactive: 0.09,,inactive: 0.054,inactive: 0.357
S100A1 (UniProt P23297),inactive: -0.091,inactive: 0.046,inactive: 0.124,,,,inactive: -0.007,inactive: -0.226,,
RRP7A (UniProt Q9Y3A4),inactive: 0.008,inactive: 0.045,inactive: -0.03,inactive: 0.295,,,inactive: 0.005,inactive: 0.082,,inactive: 0.298
RWDD2B (UniProt P57060),inactive: 0.06,inactive: 0.117,,,inactive: -0.338,inactive: 0.194,inactive: -0.08,inactive: -0.098,inactive: 0.038,
SAE1 (UniProt M0R286),inactive: 0.057,inactive: 0.065,inactive: 0.086,inactive: 0.385,,,inactive: 0.048,inactive: -0.184,,
SEC14L1 isoform 2 (UniProt Q92503),inactive: 0.068,,inactive: 0.055,inactive: 0.176,inactive: 0.21,inactive: 0.065,,,inactive: 0.162,inactive: 0.004
RSRC1 (UniProt Q96IZ7),inactive: 0.007,inactive: -0.059,inactive: 0.027,active: -0.386,inactive: 0.176,inactive: -0.034,inactive: 0.051,inactive: 0.037,,

# Reference: the supplement of paper PMC10849652
